Taken from: PubChem BioAssay AID1224830 (NIAID, 2016)
Assay: 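Regulators of TLR4 signalling towards TNF-alpha in macrophage-like cells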 (primary screen). Cell system: human THP-1 monocytic leukaemia cells, TNF dual-luciferase reporter clone, PMA-differentiated to macrophage-like cells. Reagents: siRNA pool against human genes, 50 nM. Time to read-out: LPS for 4 h, given about 3 days after siRNA transfection. Challenge: bacterial LPS (TLR4 ligand), 10 ng/ml. Detection: 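TNF firefly reporter luminescence divided by renilla, normalised to the plate median, then turned into a robust z-score for each replicate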. Scale: TNF reporter robust z-score: higher = stronger TNF reporter response to LPS. Hit rule: 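a well is active when its z-score exceeds 2.8 or falls below -1.5; control wells carry no call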.
Shown is one part, drawn at random, of about 18,000 reagents. Of all reagents, about 2,900 (16%) are marked active. 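Calls are made per well; low scores hint the gene aids the LPS response, high scores that it dampens it.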 A number with no mark means an inactive call. Repeated entries: four replicate wells of each siRNA pool. No sequences are given here.

gene,TNF reporter robust z-score
PI4KA (GeneID 5297),1.73
PI4KA (GeneID 5297),1.26
PI4KA (GeneID 5297),1.79
PI4KA (GeneID 5297),0.67
TIMM50 (GeneID 92609),-0.59
TIMM50 (GeneID 92609),1.62
TIMM50 (GeneID 92609),-0.23
TIMM50 (GeneID 92609),-0.84
UGT2A1 (GeneID 10941),0.62
UGT2A1 (GeneID 10941),1.04
UGT2A1 (GeneID 10941),-0.33
UGT2A1 (GeneID 10941),0.31
NAMPT (GeneID 10135),-1.59 (active)
NAMPT (GeneID 10135),-1.42
NAMPT (GeneID 10135),-1.44
NAMPT (GeneID 10135),-1.1
PABPC5 (GeneID 140886),-1.07
PABPC5 (GeneID 140886),-1.04
PABPC5 (GeneID 140886),-0.76
PABPC5 (GeneID 140886),0.44
UTP14A (GeneID 10813),-0.27
UTP14A (GeneID 10813),-0.67
UTP14A (GeneID 10813),-1.22
UTP14A (GeneID 10813),1.51

Continued, starting with the last 3 of the part before.
gene,TNF reporter robust z-score
UTP14A (GeneID 10813),-0.67
UTP14A (GeneID 10813),-1.22
UTP14A (GeneID 10813),1.51
SIDT2 (GeneID 51092),-0.83
SIDT2 (GeneID 51092),1.35
SIDT2 (GeneID 51092),0.57
SIDT2 (GeneID 51092),0.71
ZNF106 (GeneID 64397),0.08
ZNF106 (GeneID 64397),0.41
ZNF106 (GeneID 64397),-0.08
ZNF106 (GeneID 64397),0.49
ZBTB17 (GeneID 7709),0.74
ZBTB17 (GeneID 7709),-0.56
ZBTB17 (GeneID 7709),-0.94
RNASEH1 (GeneID 246243),-0.56
RNASEH1 (GeneID 246243),-0.9
RNASEH1 (GeneID 246243),-0.7
RNASEH1 (GeneID 246243),-0.39
SLC10A5 (GeneID 347051),0.29
SLC10A5 (GeneID 347051),1.7
SLC10A5 (GeneID 347051),-1.17
SLC10A5 (GeneID 347051),-1.24
PCNP (GeneID 57092),1.11
PCNP (GeneID 57092),3.35 (active)
PCNP (GeneID 57092),-0.08
PCNP (GeneID 57092),-0.46
